# Assay results as given in the supplement of paper PMC7052299.
# Some of the results follow. Repeats are few or missing, and single values can be far off.
# Tested on: Danio rerio embryo (th-expressing DA/NA neurons)
# Experiment: percentage of embryos with altered th expression (decrease or increase vs DMSO control) in brain region; higher = more embryos with altered dopaminergic/noradrenergic marker expression; extreme values may be limits of the assay
# Details: treatment window: 24-72 hpf, fixed 96 hpf
# Description: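 Primary screen in zebrafish embryos (AB/TL). Embryos were treated with each compound at 1, 3, 10 or 30 µM in E3/PTU with 1% DMSO from 24 to 72 hpf, washed out, and fixed at 96 hpf. th (tyrosine hydroxylase) expression was scored by whole-mount in situ hybridization per DA/NA brain region (strong decrease, decrease, normal, increase, strong increase), with 7-16 embryos per treatment and no independent replicates. The value is the percentage of scored embryos whose th expression was altered (decrease or increase) relative to DMSO controls.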
smiles,measurement,setting,value
COc1ccc(CCc2nc3cc(-c4c(C)noc4C)ccc3n2C[C@H](C)N2CCOCC2)cc1Cl,percentage of embryos with altered th expression,"1 µM, brain region: DC1",0%
same,percentage of embryos with altered th expression,"1 µM, brain region: DC2",0%
same,percentage of embryos with altered th expression,"1 µM, brain region: DC3",0%
same,percentage of embryos with altered th expression,"1 µM, brain region: DC 4,5,6",0%
same,percentage of embryos with altered th expression,"1 µM, brain region: LC",0%
same,percentage of embryos with altered th expression,"1 µM, brain region: MO",0%
same,percentage of embryos with altered th expression,"1 µM, brain region: Pretectum",0%
same,percentage of embryos with altered th expression,"1 µM, brain region: telencephalon",0%
same,percentage of embryos with altered th expression,"3 µM, brain region: DC1",0%
same,percentage of embryos with altered th expression,"3 µM, brain region: DC2",0%
same,percentage of embryos with altered th expression,"3 µM, brain region: DC3",0%
same,percentage of embryos with altered th expression,"3 µM, brain region: DC 4,5,6",0%
same,percentage of embryos with altered th expression,"3 µM, brain region: LC",0%
same,percentage of embryos with altered th expression,"3 µM, brain region: MO",0%
same,percentage of embryos with altered th expression,"3 µM, brain region: Pretectum",0%
same,percentage of embryos with altered th expression,"3 µM, brain region: telencephalon",0%
same,percentage of embryos with altered th expression,"10 µM, brain region: DC1",0%
same,percentage of embryos with altered th expression,"10 µM, brain region: DC2",0%
same,percentage of embryos with altered th expression,"10 µM, brain region: DC3",0%
same,percentage of embryos with altered th expression,"10 µM, brain region: DC 4,5,6",0%
same,percentage of embryos with altered th expression,"10 µM, brain region: LC",0%
same,percentage of embryos with altered th expression,"10 µM, brain region: MO",0%
same,percentage of embryos with altered th expression,"10 µM, brain region: Pretectum",15.4%
same,percentage of embryos with altered th expression,"10 µM, brain region: telencephalon",7.69%
same,percentage of embryos with altered th expression,"30 µM, brain region: DC1",0%
same,percentage of embryos with altered th expression,"30 µM, brain region: DC2",0%
same,percentage of embryos with altered th expression,"30 µM, brain region: DC3",0%
same,percentage of embryos with altered th expression,"30 µM, brain region: DC 4,5,6",0%
same,percentage of embryos with altered th expression,"30 µM, brain region: LC",0%
same,percentage of embryos with altered th expression,"30 µM, brain region: MO",0%
same,percentage of embryos with altered th expression,"30 µM, brain region: Pretectum",0%
same,percentage of embryos with altered th expression,"30 µM, brain region: telencephalon",0%

# Reformatted: results already given.
smiles	measurement	setting	value
COc1ccc(CCc2nc3cc(-c4c(C)noc4C)ccc3n2C[C@H](C)N2CCOCC2)cc1Cl	percentage of embryos with altered th expression	10 µM, brain region: DC 4,5,6	0%
same	percentage of embryos with altered th expression	30 µM, brain region: DC1	0%
